The text below walks through data of publication PMC5742583, “A Functional Analysis on the Interspecies Interaction between Mouse LFA-1 and Human Intercellular Adhesion Molecule-1 at the Cell Level” (Frontiers in Immunology, 2017).

Amino acid sequences for entries named in this document (tags omitted). A change or cut given only in a name is not applied to a line headed by its entry. Residues count along the entry.
UniProt P24063: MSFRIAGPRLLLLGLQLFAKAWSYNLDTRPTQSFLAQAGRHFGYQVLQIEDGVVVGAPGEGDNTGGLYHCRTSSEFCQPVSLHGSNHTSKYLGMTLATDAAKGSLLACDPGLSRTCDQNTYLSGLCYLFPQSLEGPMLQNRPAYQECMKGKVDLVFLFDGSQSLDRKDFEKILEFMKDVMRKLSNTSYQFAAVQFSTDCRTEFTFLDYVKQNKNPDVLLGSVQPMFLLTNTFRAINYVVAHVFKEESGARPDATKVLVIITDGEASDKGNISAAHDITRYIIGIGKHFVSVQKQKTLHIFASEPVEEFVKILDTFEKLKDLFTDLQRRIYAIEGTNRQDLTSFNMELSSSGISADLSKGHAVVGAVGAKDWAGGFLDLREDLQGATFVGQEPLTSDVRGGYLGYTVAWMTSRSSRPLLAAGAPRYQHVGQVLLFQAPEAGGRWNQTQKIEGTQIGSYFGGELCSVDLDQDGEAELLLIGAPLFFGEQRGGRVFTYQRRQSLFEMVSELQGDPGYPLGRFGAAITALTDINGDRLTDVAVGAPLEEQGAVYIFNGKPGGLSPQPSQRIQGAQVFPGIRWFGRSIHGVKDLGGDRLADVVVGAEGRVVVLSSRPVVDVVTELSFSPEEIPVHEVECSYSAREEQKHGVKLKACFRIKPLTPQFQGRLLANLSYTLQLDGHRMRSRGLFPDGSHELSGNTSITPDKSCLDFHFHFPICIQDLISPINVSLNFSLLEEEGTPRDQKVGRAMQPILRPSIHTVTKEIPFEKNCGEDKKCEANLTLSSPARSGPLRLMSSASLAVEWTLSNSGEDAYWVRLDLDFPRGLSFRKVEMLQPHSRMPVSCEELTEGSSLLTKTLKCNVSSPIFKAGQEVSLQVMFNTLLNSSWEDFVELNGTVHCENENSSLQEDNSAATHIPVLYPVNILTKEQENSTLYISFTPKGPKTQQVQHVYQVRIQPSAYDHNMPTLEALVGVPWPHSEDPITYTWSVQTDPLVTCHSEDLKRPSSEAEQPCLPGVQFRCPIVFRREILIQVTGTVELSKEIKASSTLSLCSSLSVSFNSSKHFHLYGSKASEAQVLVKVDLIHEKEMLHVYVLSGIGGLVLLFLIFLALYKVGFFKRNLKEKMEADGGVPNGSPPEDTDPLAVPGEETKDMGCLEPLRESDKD
UniProt P11835: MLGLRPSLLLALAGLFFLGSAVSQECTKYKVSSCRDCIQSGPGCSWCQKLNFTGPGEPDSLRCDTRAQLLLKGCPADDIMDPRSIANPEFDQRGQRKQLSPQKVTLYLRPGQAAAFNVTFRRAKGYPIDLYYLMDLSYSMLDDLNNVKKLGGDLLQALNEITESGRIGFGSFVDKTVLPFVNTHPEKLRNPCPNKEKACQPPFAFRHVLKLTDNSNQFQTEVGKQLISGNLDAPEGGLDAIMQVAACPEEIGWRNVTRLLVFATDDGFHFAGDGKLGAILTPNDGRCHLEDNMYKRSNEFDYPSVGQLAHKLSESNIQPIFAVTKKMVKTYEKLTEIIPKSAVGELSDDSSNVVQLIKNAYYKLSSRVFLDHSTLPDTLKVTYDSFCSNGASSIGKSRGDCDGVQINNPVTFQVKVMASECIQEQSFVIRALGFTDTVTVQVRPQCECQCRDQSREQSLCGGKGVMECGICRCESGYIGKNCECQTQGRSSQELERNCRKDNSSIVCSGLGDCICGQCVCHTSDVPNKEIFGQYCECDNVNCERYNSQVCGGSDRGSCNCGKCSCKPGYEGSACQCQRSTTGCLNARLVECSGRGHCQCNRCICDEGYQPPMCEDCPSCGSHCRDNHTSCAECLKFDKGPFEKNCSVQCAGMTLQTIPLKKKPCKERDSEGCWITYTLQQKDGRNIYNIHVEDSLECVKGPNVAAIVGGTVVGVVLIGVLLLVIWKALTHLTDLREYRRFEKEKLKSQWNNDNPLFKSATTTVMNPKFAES
UniProt P05362, residues 28-480: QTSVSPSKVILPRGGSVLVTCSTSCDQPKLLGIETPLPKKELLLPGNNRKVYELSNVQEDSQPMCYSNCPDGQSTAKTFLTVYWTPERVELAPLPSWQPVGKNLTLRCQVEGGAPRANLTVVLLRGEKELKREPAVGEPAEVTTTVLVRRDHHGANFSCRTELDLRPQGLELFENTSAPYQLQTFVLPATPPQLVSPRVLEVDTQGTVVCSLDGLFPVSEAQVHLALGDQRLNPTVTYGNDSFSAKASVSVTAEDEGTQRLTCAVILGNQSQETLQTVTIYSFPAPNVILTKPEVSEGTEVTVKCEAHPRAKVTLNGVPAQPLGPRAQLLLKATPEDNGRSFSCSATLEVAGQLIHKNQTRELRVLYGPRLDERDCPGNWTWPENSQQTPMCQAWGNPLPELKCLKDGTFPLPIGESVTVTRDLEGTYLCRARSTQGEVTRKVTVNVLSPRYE
UniProt P13597, residues 28-485: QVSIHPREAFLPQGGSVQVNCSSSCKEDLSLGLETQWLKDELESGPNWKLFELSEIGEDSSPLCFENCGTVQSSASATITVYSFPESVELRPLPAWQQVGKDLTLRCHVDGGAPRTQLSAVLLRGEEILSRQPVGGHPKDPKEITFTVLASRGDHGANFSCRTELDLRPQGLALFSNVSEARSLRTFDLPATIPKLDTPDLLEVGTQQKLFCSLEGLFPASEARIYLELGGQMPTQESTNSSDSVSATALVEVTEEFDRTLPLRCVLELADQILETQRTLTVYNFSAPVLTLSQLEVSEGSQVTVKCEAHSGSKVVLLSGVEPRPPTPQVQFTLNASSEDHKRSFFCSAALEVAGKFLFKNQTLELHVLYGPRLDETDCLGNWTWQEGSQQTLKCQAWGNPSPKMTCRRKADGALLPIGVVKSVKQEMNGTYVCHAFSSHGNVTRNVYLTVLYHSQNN

The experiment concerns the target mouse LFA-1 (CD11a/CD18) on mouse cells (mouse (endogenous in EL4)) (UniProt P24063+P11835). As to the kind of experiment: flow cytometry on cells; EL4 cells incubated with the Fc chimeras at 4°C for 45 min, washed with FACS buffer, detected with PE-conjugated goat anti-human IgG (Fcγ fragment specific); as control cells were pretreated with an antibody against mouse CD11a; only the binder purified. On the technique in general: A flow cytometer gives signals particle by particle.

No constants are given. Whether binding was seen depends on the method and setting. Some entries that bind do so weakly or less than the wild type.

Consider “human Fc chimera containing the five extracellular domains of ICAM-1 (human D1D5Fc) (from UniProt P05362 28-480) (Fc fusion)”, for which the binding entry is “binds”.
Under “mouse Fc chimera containing the five extracellular domains of ICAM-1 (mouse D1D5Fc) (from UniProt P13597 28-485) (Fc fusion)” stands “binds”.
